# Primary screen of a compound library

From ChEMBL document CHEMBL3988442, “University of Dundee, Small-Polar-MMV Screening Library” (2021).

The filed quantity is “Percent Effect” (%). The controls that fix the scale are not given in the record; negative values are as filed. This is an unselected part of the compounds tested. Two or more numbers in one place are separate tests of the same structure; such repeats can differ widely.

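Viability assay of Plasmodium falciparum sporozoites; the read-out is not stated. The concentration is filed as 10 mM, unlikely as a test dose, so the dose is not known. Direction is inferred from retests: higher values go with lower viability. Strong results were mostly tested again. About 34,000 compounds were tested under these conditions; 0.84% (about 280) showed 50% or more at least once.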

| compound | Percent Effect |
|---|---|
| `CNc1nccc(C2CCCCN2Cc2cnn3cccnc23)n1` (configuration not stated) | 9.041% |
| `O=C(NCCC1=CCCCC1)C1CCN(c2ccc3nncn3n2)CC1` | 11.54% |
| `Cc1cc(C)n(C2CCN(S(=O)(=O)N3CCC(C)CC3)CC2)n1` | -0.8044% |
| `Cc1nc(C)n(CC2CN(CCOc3cccc(F)c3)CCO2)n1` (configuration not stated) | 6.244% |
| `CNC(=O)CN1CCOCC2(CCCN(Cc3ccoc3)C2)C1` (configuration not stated) | -9.928% |
| `CC1CN(CC(=O)NC2CCCC2)CCN1c1ccc2nncn2n1` (configuration not stated) | 12.4% |
| `CNC(=O)NCc1nn(-c2ccccc2)c2c1CCC2` | 12.21% |
| `O=C1NCC2(CCCN(Cc3ccccc3F)C2)Oc2ccccc21` (configuration not stated) | -8.649% |
| `O=C(O)c1ccc(CN2CCCC(Cc3ccn[nH]3)C2)cc1` (configuration not stated) | 4.985% |
| `CC(=O)N(C)c1nc(Cn2nnnc2C(C)C)cs1` | -19.87% and -20.23% |
| `CC(C)c1nc(CN2CCOCC2)cs1` | 4.236% |
| `COc1ccnc(N2CCN(C(=O)c3csc(C4CC4)n3)CC2)n1` | -10.15% |
| `CS(=O)(=O)N1CCc2ncc(CNC(=O)C3CCC3)n2CC1` | -2.895% |
| `CCN1CCN(C2CCN(Cc3nc(C4CC4)no3)CC2)C1=O` | -7.263% |
| `O=C(Nc1ccccc1)C1CN(CC2CC2)CC12CCOCC2.O=C(O)C(F)(F)F` (configuration not stated) | -4.654% |
| `Cc1nc(C)n(CC2CCCN2Cc2cccc3c2OCCO3)n1` (configuration not stated) | -8.707% |
| `O=C(C1CCC1)N1CCN(c2snc3ccccc23)CC1` | -10.02% |
| `O=C(c1cncs1)N1CCOC(c2cc(CCO)[nH]n2)C1` (configuration not stated) | 5.028% |
| `CCOc1c(Br)cc(/C=C/c2ncc(C(=O)O)s2)cc1OC` | 11.83% |
| `[H][C@@]12CN(CCOC)C[C@]1([H])[C@H](OC)CCN2C(=O)COc1ccccc1` | -2.125% |
| `O=C(NC[C@@H]1CCCO1)c1cccnc1N1CCCC1c1ccccc1` (some centres not stated) | -3.514% |
| `CN(Cc1csc(-c2cccs2)n1)C(=O)CCn1ccccc1=O` | -14.38% |
| `CC(=O)c1ccc(Cl)c(Cl)c1OCC(=O)NC(C)C` | -20.11% |
| `Cc1nc2sccn2c1CNC1(c2ccccc2F)CCCC1.O=C(O)CC(O)(CC(=O)O)C(=O)O` | 0.4433% |
| `COc1ccc(F)cc1S(=O)(=O)NCC(c1cccn1C)N(C)C` (configuration not stated) | 1.299% |
| `COCC(=O)NCc1cc(=O)n2c(n1)CN(CC1CCOC1)CCC2.O=C(O)C(F)(F)F` (configuration not stated) | 2.971% |
| `CCNC(=O)N(C)C1CCN(Cc2ncc(C)c(OC)c2C)CC1` | -1.398% |
| `Cc1ccc(CNC(=O)Nc2nncs2)n1C` | -4.491% |
| `Cc1ccc(-c2noc(C3CCN3C(=O)c3ccc(=O)[nH]n3)n2)s1` (configuration not stated) | 7.828% |
| `Cc1ccc(C(=O)N2CCC(c3n[nH]c(C4CC4)n3)CC2)cc1F` | -3.499% |
| `CC(C)c1ncc(CN2CCOC(C(=O)Nc3ccccc3)C2)cn1` (configuration not stated) | 0.6793% |
| `CC(O)CNCc1c(C(C)C)nn(C)c1N1CCOCC1` (configuration not stated) | 2.703% |
| `Cc1cc(CN2CCC(C3CCN(CC(C)C)CC3)C2)[nH]n1` (configuration not stated) | -10% |
| `CN(Cc1ccccc1)C1COC2(CCN(Cc3nccs3)CC2)C1.O=C(O)C(F)(F)F` (configuration not stated) | -6.169% |
| `CNc1cncc(C2CCCN2S(=O)(=O)c2ccccc2F)n1` (configuration not stated) | 7.397% |
| `COCCC(=O)N1CCCC1c1nc(O)cc(C(C)C)n1` (configuration not stated) | 7.459% |
| `CS(=O)(=O)CCNC(=O)Nc1sc2ccccc2c1Cl` | 3.608% and 15.59% and 32.52% |
| `CC(NCc1cnc(N2CCOCC2)s1)c1ccc(Cl)s1` (configuration not stated) | 10.47% |
| `Cc1nc(C(=O)N2CCOC(Cc3ccccc3)C2)co1` (configuration not stated) | 3.964% |
| `[H][C@]12CC[C@]([H])(CN(Cc3ccccc3)C1)N(C(=O)CCc1cnn(C)c1)C2` | -16.8% |
| `O=C(NCC(c1ccccc1)N1CCOCC1)Nc1cn[nH]c1` (configuration not stated) | 8.946% |
| `CN(C(=O)CN1CCC(NC(=O)c2cccs2)CC1)c1ccccc1` | -4.219% |
| `CN([C@@H]1CCC[C@@H](n2ccnc2)[C@@H]1O)S(=O)(=O)c1cn(C)cn1` | 7.111% |
| `COc1ccccc1OCCNC(=O)N1CCC(n2cncn2)CC1` | 4.895% |
| `COc1ccc(COCC(O)CNC(=O)c2ccncc2)cc1` (configuration not stated) | -0.1346% |
| `CCC1CCCCN1C(=O)Cn1nc(-c2cc(C)oc2C)cc(N)c1=O` (configuration not stated) | 3.927% |
| `CCn1cc(S(=O)(=O)NC2CCCC2)cn1` | 6.094% |
| `O=S(=O)(c1cccs1)N1CCCC(c2nccs2)C1` (configuration not stated) | 0.7179% |
| `Cc1cc(CN2Cc3ccccc3CC2c2nnc(C)o2)on1` (configuration not stated) | -12.02% |
| `Cc1cnn(C2CN(CC(=O)NCCc3ccsc3)C2)c1` | -2.783% |
| `CN(Cc1cnn(C)c1)C(=O)NCc1cc(Br)cs1` | 9.026% |
| `COc1cccc(C(=O)N2CCCCC2c2nccs2)c1OC` (configuration not stated) | 2.189% |
| `CN1CC(c2ccccc2)CC2(CCN(C(=O)c3cccnn3)CC2)C1` (configuration not stated) | 5.843% |
| `CN1CCCC1c1nnc2n1CCN(S(=O)(=O)c1ccccc1Cl)CC2` (configuration not stated) | -1.424% |
| `O=C1N(c2ccc(Br)cc2)Cc2nc(=O)[nH]n21` | -15.57% |
| `Cc1nn(C)c(N(C)C)c1CNC1CCOc2c(Cl)cccc21` (configuration not stated) | 0.9599% |
| `CN1CCCC1CCNC(=O)Nc1ccccc1` (configuration not stated) | -10.94% |
| `COc1ncccc1NC(=O)NC(C)(C)c1ncc(C)s1` | -13.24% |